For this assay, the target named is His-tagged SUMO-3 (UniProt P55854). As to the kind of experiment: pull-down; His-tagged SUMO proteins co-transfected with V5-tagged proteins in HEK 293T, 36 h; Ni-NTA beads, non-denaturing conditions; anti-V5 blot.

Protein sequences, listed by entry. Tags and fused reporters are not part of them. Residues count along the entry.
UniProt P55854, residues 1-92: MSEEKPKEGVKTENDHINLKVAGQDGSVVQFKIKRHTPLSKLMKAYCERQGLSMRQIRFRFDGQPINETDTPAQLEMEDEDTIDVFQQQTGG
UniProt Q7Z494: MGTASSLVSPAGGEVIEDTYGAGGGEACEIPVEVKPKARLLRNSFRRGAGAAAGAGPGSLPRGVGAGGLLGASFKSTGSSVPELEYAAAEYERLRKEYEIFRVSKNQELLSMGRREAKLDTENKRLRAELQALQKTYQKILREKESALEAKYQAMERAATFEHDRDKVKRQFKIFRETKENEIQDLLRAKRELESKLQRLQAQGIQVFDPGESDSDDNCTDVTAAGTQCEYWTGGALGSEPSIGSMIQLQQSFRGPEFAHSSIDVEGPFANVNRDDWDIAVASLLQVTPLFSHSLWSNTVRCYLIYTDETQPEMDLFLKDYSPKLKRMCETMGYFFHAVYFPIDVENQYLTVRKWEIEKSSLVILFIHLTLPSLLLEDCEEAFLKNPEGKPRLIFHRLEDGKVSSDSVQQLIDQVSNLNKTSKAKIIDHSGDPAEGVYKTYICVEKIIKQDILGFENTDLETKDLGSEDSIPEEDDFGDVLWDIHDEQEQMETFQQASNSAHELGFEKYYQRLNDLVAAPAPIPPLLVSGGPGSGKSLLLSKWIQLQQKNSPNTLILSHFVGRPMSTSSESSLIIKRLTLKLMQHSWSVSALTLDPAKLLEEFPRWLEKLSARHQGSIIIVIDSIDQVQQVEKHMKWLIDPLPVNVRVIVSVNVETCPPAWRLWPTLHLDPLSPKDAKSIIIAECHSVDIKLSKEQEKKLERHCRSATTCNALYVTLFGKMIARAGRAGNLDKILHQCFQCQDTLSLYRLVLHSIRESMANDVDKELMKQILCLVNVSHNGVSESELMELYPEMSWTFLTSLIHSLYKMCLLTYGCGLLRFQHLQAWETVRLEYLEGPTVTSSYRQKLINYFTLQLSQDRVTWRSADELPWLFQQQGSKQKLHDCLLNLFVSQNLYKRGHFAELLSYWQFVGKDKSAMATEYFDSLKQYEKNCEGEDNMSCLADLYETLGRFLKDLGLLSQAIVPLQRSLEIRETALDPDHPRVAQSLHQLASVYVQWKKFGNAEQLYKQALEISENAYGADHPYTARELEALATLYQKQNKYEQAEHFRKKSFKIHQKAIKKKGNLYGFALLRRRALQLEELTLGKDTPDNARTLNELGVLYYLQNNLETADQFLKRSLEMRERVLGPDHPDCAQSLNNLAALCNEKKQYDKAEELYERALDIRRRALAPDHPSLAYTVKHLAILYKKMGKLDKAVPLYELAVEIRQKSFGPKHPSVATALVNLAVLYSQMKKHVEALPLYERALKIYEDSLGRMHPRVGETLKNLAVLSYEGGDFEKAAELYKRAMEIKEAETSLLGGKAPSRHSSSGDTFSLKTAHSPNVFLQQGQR

Results are given in words; binding and its absence hold for the method and conditions named. Binding seen in cells or lysates may run through a third protein.

Results on one substance are retold here after publication PMC4471195.

“V5-tagged NPHP3 (from UniProt Q7Z494 1-1330)”: the binding entry was “no binding”.
